# PubChem BioAssay AID504444 (National Center for Advancing Translational Sciences (NCATS), 2011)
# Out of some 360,000 compounds screened, about 7,500 (2.1%) were called active. The inconclusive results got no clear call from the source; some entries with a clear call stand among them for comparison. Calls follow the shape of the dose curve; as a rule, active = well fitted inhibition curve with a large enough effect; inconclusive = small, poorly fitted or top-dose-only effect, or effect the other way; inactive = flat fitted curve, though single readings scatter. A potency beside an inconclusive call is a rough fit, not a confirmed value.
# Assay: Nrf2 qHTS screen for inhibitors; also: nearly all actives have a fitted effect of over 60% in size
# Settings: A549 ARE-Fluc reporter, luciferase luminescence, 18-24 h; series mostly up to 46 µM
# Summary of the method: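 Quantitative HTS in A549 cells stably bearing an antioxidant response element-firefly luciferase construct. Inhibition of Nrf2-driven transcription was scored by luminescence after 18-24 h of compound exposure at 37 °C.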
# Potency is read from the fitted curve at half-maximal effect.
row,SMILES,Potency
1,c1cnc2c(OCc3nc4ccccc4[nH]3)cccc2c1,"inconclusive: 1.64 µM [activator, full curve]"
2,CN=c1scc(-c2ccc(OC)cc2)n1/N=C(\C)c1cccnc1,"inconclusive: 29.1 µM [falling, single point]"
3,C=C1SC(Nc2c(C)cccc2C)=NC12CCCCC2,"inconclusive: 29.1 µM [falling, single point]"
4,CCN(Cc1ccccc1)S(=O)(=O)c1ccc2[nH]c3c(c2c1)CCCCC3,"inconclusive: 29.1 µM [falling, single point]"
5,CN(Cc1ccccc1)c1ccc(-c2nc(-c3cccnc3)no2)cc1[N+](=O)[O-],"inconclusive: 29.1 µM [falling, single point]"
6,CN(C)c1ccc(C(CNS(=O)(=O)c2ccc3ccccc3c2)c2c[nH]c3ccccc23)cc1 (stereo unspecified),"inconclusive: 32.6 µM [falling, single point]"
7,Cc1c(C(=O)OCCOc2ccccc2)[nH]c2c1C(=O)CC(c1ccccc1Cl)C2 (stereo unspecified),"inconclusive: 29.1 µM [falling, single point]"
8,O=C(Cn1c(-c2cscn2)nc2ccccc21)Nc1ccccc1F,"inconclusive: 29.1 µM [falling, single point]"
9,Cc1cc(C)nc(N/N=C/C2=C(N3CCOCC3)C(=C/c3ccccc3)/CC2)n1,"inconclusive: 25.9 µM [falling, partial curve]"
10,CCC(C(=O)NCCc1cc(OC)ccc1OC)n1nc(C)c2sc3ccccc3c2c1=O (stereo unspecified),"inconclusive: 9.2 µM [falling, partial curve]"
11,O=C(Nc1nc2ccccc2n1CCN1CCCCC1)c1ccco1,"inconclusive: 25.9 µM [activator, single point]"
12,N#CCSc1ncnc2ccccc12,"inconclusive: 23.1 µM [falling, partial curve]"
13,Cn1c(N2CCN(C(c3ccccc3)c3ccccc3)CC2)nc2c1c(=O)[nH]c(=O)n2C,"inconclusive: 20.6 µM [falling, single point]"
14,CC1CCCCC1NC(=O)COCc1cc(-c2cccs2)on1 (stereo unspecified),inactive
15,CC(Oc1ccccc1Cl)C(=O)Nc1ccc(S(=O)(=O)N2CCN(C)CC2)cc1 (stereo unspecified),"inconclusive: 0.58 µM [activator, full curve, poor fit]"
16,Cc1ccc(C)c(N2CCN(C(=O)C3CCN(S(=O)(=O)c4cccc5nsnc45)CC3)CC2)c1,"inconclusive: 11.6 µM [falling, partial curve]"
17,O=C(N/N=C/c1cc([N+](=O)[O-])ccc1Cl)c1cc(-c2ccccc2)nc2ccccc12,inactive
18,CN(C(=O)CN1CCCCCC1)c1c(N)n(Cc2ccccc2)c(=O)[nH]c1=O,"inconclusive: 14.6 µM [activator, partial curve, poor fit]"
19,COc1ccc(-c2csc(N3CCOCC3)n2)cc1OC,"inconclusive: 5.17 µM [activator, partial curve, poor fit]"
20,CCOC(=O)c1cnc2nc(NCc3ccc(OCC)cc3)[nH]n2c1=O,inactive
21,O=C1CCCCCN1CP(=O)(O)CN1CCCCCC1=O,inactive
22,COc1ccc(N(CC(=O)Nc2c(C)cccc2C)S(=O)(=O)c2ccccc2[N+](=O)[O-])c(OC)c1,"inconclusive: 20.6 µM [falling, single point]"

row,SMILES,Potency
1,CN(C)/C=C/C(=O)c1ccc(-n2cccc2)cc1,"inconclusive: 2.31 µM [activator, full curve]"
2,COc1ccc(C2c3c(nc(Cc4ccccc4)[nH]c3=O)Oc3ccc4ccccc4c32)cc1OC (stereo unspecified),"inconclusive: 29.1 µM [falling, single point]"
3,COc1ccnc(N=CNOCc2cccc(C(F)(F)F)c2)c1C#N,"inconclusive: 0.517 µM [falling, partial curve, poor fit]"
4,O=C(Cc1ccccc1)Nc1ccc(NC(=O)c2ccccc2)nc1,"inconclusive: 1.46 µM [activator, full curve, poor fit]"
5,Cc1ccc(NC(=O)CSc2nc3nn(-c4ccccc4)c(=O)c-3c3n2CCCCC3)cc1F,"inconclusive: 14.6 µM [falling, partial curve]"
6,C#CCOc1ccc2ccccc2c1/C=C(/C#N)c1ccc(C(=O)O)cc1,inactive
7,Cc1cc(NC(=O)c2sccc2C)n(-c2nc3ccccc3[nH]2)n1,"inconclusive: 29.1 µM [falling, single point]"
8,Cc1ccc(C(=O)Nc2ccc(N3CCN(C(=O)c4ccco4)CC3)cc2)c(Cl)c1,"inconclusive: 16.4 µM [falling, partial curve, poor fit]"
9,CC(C)(C)c1ccc(C(=O)Nc2cnccn2)cc1,"inconclusive: 0.326 µM [activator, full curve]"
10,Cn1c(SCC(=O)Nc2cccnc2)nnc1-c1ccccc1F,"inconclusive: 16.4 µM [falling, single point]"
11,CCn1cc(C(=O)N2CCN(c3ccccc3OC)CC2)c(=O)c2cc(S(=O)(=O)N3CCC(C)CC3)ccc21,inactive
12,Cc1ccc(C)c(Nc2cc(C)nc3ncnn23)c1,"inconclusive: 6.51 µM [falling, partial curve, poor fit]"
13,CC(Oc1ccc(Cl)cc1Cl)c1nc(-c2ccc(NC(=O)c3ccco3)cc2)no1 (stereo unspecified),"inconclusive: 29.1 µM [falling, single point]"
14,N#C/C(=C\c1ccccc1)C(=O)NNS(=O)(=O)c1cccc([N+](=O)[O-])c1,inactive
15,Cn1ccsc1=NC(=O)c1cccc(C#N)c1,"inconclusive: 29.1 µM [activator, single point]"
16,Brc1ccccc1OCCCOc1cccc2cccnc12,"inconclusive: 14.6 µM [activator, partial curve, poor fit]"
17,N#CCC(=O)Nc1ccc(C(=O)NCCC(c2ccccc2)c2ccccc2)cc1,"inconclusive: 23.1 µM [falling, partial curve, poor fit]"
18,Cc1ccc(C)c(C(C)NC(=S)NCc2ccc(F)cc2)c1 (stereo unspecified),"inconclusive: 25.9 µM [falling, single point]"
19,CCN(CC)CCN1C(=O)c2ccccc2NC1c1ccc(C)cc1 (stereo unspecified),inactive
20,CCc1ccccc1NC(=O)CN1C(=O)COc2ccc(S(=O)(=O)N3CCCCCC3)cc21,inactive
21,COc1cc(-c2cc(-c3ccccc3)nc(SCC(=O)Nc3nccs3)c2C#N)cc(OC)c1OC,"inconclusive: 29.1 µM [falling, single point]"
22,Cc1c(C(=O)C(=O)N2c3ccccc3CC2C)c2ccccc2n1C (stereo unspecified),"inconclusive: 20.6 µM [falling, partial curve, poor fit]"

row,SMILES,Potency
1,CC(C)n1c(CN(C)Cc2ccccc2)nc2c1c(=O)n(C)c(=O)n2C,active: 0.461 µM
2,O=C(Nc1cccnc1)c1sc2cccc(F)c2c1Cl,"inconclusive: 5.8 µM [activator, full curve]"
3,O=C(CCCCn1c(=O)c2ccccc2n(Cc2ccccc2F)c1=O)NCc1ccccc1Cl,inactive
4,CN(CC(=O)Nc1ccc(F)cc1)C(=O)c1ccc(-c2ccc(Cl)cc2)o1,"inconclusive: 20.6 µM [falling, single point]"
5,CCOC(=O)c1c(NC(=O)c2ccco2)n(C2CCCCC2)c2nc3ccccc3nc12,inactive
6,CCN(CC)C(=O)C1=CC(c2ccc3c(c2)OCO3)=NS(=O)(=O)N1C,inactive
7,Cc1cccc(C)c1NC(=S)Nc1ccc(F)cc1,"inconclusive: 0.0291 µM [falling, full curve]"
8,COCCNC(=O)NC(=O)COC(=O)c1ccc2[nH]c3c(c2c1)CCCC3,"inconclusive: 18.4 µM [falling, partial curve, poor fit]"
9,CCOc1ccc(NC(=S)NC(=O)/C=C/c2ccc(OC)c(OC)c2)c([N+](=O)[O-])c1,active: 20.6 µM
10,O=S(=O)(NCCc1nnc2ccc(SCc3c(F)cccc3Cl)nn12)c1ccccc1,"inconclusive: 29.1 µM [falling, single point]"
11,CCOc1cc2[nH]c(=S)n(CCCCC(=O)NCc3ccco3)c(=O)c2cc1OCC,inactive
12,CSc1ncnc2c1cnn2-c1ccc(C)cc1C,"inconclusive: 9.2 µM [activator, partial curve, poor fit]"
13,Cc1nnc2ccc(-c3ccc(NS(=O)(=O)c4ccccc4[N+](=O)[O-])cc3)nn12,"inconclusive: 29.1 µM [falling, single point]"
14,COC(=O)C1=C(C)N(CC2CC2)C(=NCc2cc(OC)c(OC)c(OC)c2)N[C@H]1c1ccccc1,"inconclusive: 29.1 µM [activator, single point]"
15,Fc1ccc(-c2cc(-c3ccccc3)nc(-n3cccn3)n2)cc1,"inconclusive: 3.26 µM [falling, single point]"
16,Cc1oc(-c2ccccc2F)nc1CSCC(=O)NCCc1ccccc1,"inconclusive: 25.9 µM [falling, partial curve, poor fit]"
17,O=C(Nc1cc(S(=O)(=O)N2CCOCC2)ccc1N1CCCC1)c1ccc2c(c1)S(=O)(=O)c1ccccc1C2=O,inactive
18,COc1ccc(NC(=O)COc2ccccc2F)cc1S(=O)(=O)N1CCCCC1,"inconclusive: 25.9 µM [falling, single point]"
19,COC(=O)C(C)n1cnc2c(nnn2-c2cccc(OC)c2)c1=O (stereo unspecified),inactive
20,CCCc1cnc(N2CCN(C(=O)c3ccc(F)cc3)CC2)nc1,"inconclusive: 20.6 µM [falling, single point]"
21,Cc1ccc(C(=O)c2ccccc2C(=O)OCC(=O)Nc2ccc(SC(F)F)cc2)cc1,"inconclusive: 32.6 µM [falling, single point]"
22,O=S(=O)(c1ccccc1)c1nnn2c1nc(NC1CCN(Cc3ccccc3)CC1)c1ccccc12,"inconclusive: 20.6 µM [falling, single point]"

# As a short view, 13 of the compounds above.
row,SMILES,Potency
2,O=C(Nc1cccnc1)c1sc2cccc(F)c2c1Cl,"inconclusive: 5.8 µM [activator, full curve]"
3,O=C(CCCCn1c(=O)c2ccccc2n(Cc2ccccc2F)c1=O)NCc1ccccc1Cl,inactive
4,CN(CC(=O)Nc1ccc(F)cc1)C(=O)c1ccc(-c2ccc(Cl)cc2)o1,"inconclusive: 20.6 µM [falling, single point]"
5,CCOC(=O)c1c(NC(=O)c2ccco2)n(C2CCCCC2)c2nc3ccccc3nc12,inactive
6,CCN(CC)C(=O)C1=CC(c2ccc3c(c2)OCO3)=NS(=O)(=O)N1C,inactive
7,Cc1cccc(C)c1NC(=S)Nc1ccc(F)cc1,"inconclusive: 0.0291 µM [falling, full curve]"
8,COCCNC(=O)NC(=O)COC(=O)c1ccc2[nH]c3c(c2c1)CCCC3,"inconclusive: 18.4 µM [falling, partial curve, poor fit]"
9,CCOc1ccc(NC(=S)NC(=O)/C=C/c2ccc(OC)c(OC)c2)c([N+](=O)[O-])c1,active: 20.6 µM
10,O=S(=O)(NCCc1nnc2ccc(SCc3c(F)cccc3Cl)nn12)c1ccccc1,"inconclusive: 29.1 µM [falling, single point]"
11,CCOc1cc2[nH]c(=S)n(CCCCC(=O)NCc3ccco3)c(=O)c2cc1OCC,inactive
12,CSc1ncnc2c1cnn2-c1ccc(C)cc1C,"inconclusive: 9.2 µM [activator, partial curve, poor fit]"
13,Cc1nnc2ccc(-c3ccc(NS(=O)(=O)c4ccccc4[N+](=O)[O-])cc3)nn12,"inconclusive: 29.1 µM [falling, single point]"
14,COC(=O)C1=C(C)N(CC2CC2)C(=NCc2cc(OC)c(OC)c(OC)c2)N[C@H]1c1ccccc1,"inconclusive: 29.1 µM [activator, single point]"
